This is one part of the list. Single values are uncertain here, since repeats match poorly.
System: MDA-MB-468
Assay: phospho-S6 immunofluorescence (DAPI-normalised), per-plate z-score; higher = higher phospho-S6 signal (less pathway suppression)
Conditions: 24 h
Description: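 GPCR-targeted compound library (MedChemExpress HY-L006) tested on MDA-MB-468 PTEN-null TNBC cells in 384-well plates at 0.1, 1 or 10 uM, combined with vehicle, GDC0941 450 nM or lapatinib 1 uM, for 24 h. Phospho-S6 (S240/244) immunofluorescence normalised to DAPI and expressed as a per-plate z-score; values are the mean of biological triplicates.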

[1] = compound 0.1 µM, co-treatment: GDC0941 450 nM
[2] = compound 0.1 µM, co-treatment: lapatinib 1 uM
[3] = compound 0.1 µM, co-treatment: vehicle
[4] = compound 1 µM, co-treatment: GDC0941 450 nM
[5] = compound 1 µM, co-treatment: lapatinib 1 uM
[6] = compound 1 µM, co-treatment: vehicle
[7] = compound 10 µM, co-treatment: GDC0941 450 nM
[8] = compound 10 µM, co-treatment: lapatinib 1 uM
[9] = compound 10 µM, co-treatment: vehicle

| Compound | phospho-S6 immunofluorescence (z-score) [1] | phospho-S6 immunofluorescence (z-score) [2] | phospho-S6 immunofluorescence (z-score) [3] | phospho-S6 immunofluorescence (z-score) [4] | phospho-S6 immunofluorescence (z-score) [5] | phospho-S6 immunofluorescence (z-score) [6] | phospho-S6 immunofluorescence (z-score) [7] | phospho-S6 immunofluorescence (z-score) [8] | phospho-S6 immunofluorescence (z-score) [9] |
| --- | --- | --- | --- | --- | --- | --- | --- | --- | --- |
| C[N+]1(C)CCCC(OC(=O)C(O)(c2ccccc2)c2ccccc2)C1 (stereo unspecified) [Mepenzolate (Bromide)] | 1.26 | 1.15 | 1.33 | 1.01 | -0.61 | -1 | -0.25 | -0.12 | -0.02 |
| COc1ccc2c(c1)[nH]c1c(C)nccc12 [Harmine] | 0.34 | -0.78 | -0.35 | 0.44 | -1.56 | -0.14 | -0.75 | -1.57 | -1.55 |
| CN1C[C@H](C(=O)N[C@]2(C)O[C@@]3(O)[C@@H]4CCCN4C(=O)[C@H](Cc4ccccc4)N3C2=O)C[C@@H]2c3cccc4[nH]cc(c34)C[C@H]21 [Dihydroergotamine (mesylate)] | 1.28 | 0.2 | 0.93 | 0.36 | 1.4 | 0.95 | 1.05 | 0 | 0.86 |
| CC[N+](C)(CC)CCOC(=O)C(O)(c1ccccc1)c1ccccc1 [Methylbenactyzium Bromide] | 0.02 | -1.14 | -1.21 | -0.52 | -0.52 | -0.14 | -0.26 | -0.59 | -0.57 |
